Some of the results follow.
molecular target: T1, OsSMF1 (Oryza sativa, UniProt Q6ZLB0 1-436); test: protein-binding microarray (RPBM); PBS, 2% BSA, 51.3 ng/ul salmon testes DNA, 50 uM zinc acetate, 200 nM TF, 25 C, 1 h; high values mean tight binding; conditions: protein: recombinant; tags: N-terminal polyhistidine and DsRed monomer fusion (pET32a); chain copies: 2; label: CyDye5-dUTP incorporated in the synthesized complementary strand; 3' TTTTT single-stranded linker to array surface; dsDNA, one strand shown
T1 sequence: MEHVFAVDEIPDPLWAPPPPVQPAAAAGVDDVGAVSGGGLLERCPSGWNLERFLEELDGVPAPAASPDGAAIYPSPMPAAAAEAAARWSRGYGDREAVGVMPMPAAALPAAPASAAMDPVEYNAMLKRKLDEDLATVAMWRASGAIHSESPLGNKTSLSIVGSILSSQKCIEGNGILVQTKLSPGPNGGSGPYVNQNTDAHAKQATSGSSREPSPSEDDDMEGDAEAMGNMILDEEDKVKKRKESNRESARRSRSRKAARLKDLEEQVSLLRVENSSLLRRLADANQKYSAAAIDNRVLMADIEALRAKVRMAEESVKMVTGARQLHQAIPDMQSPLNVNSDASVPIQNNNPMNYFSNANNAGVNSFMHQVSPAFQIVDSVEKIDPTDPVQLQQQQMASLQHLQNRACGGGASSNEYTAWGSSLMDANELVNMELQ
Procedure, shortened: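 Per-feature fluorescence intensity (arbitrary units), read on an Axon 4000B scanner, is the binding signal. Transcription factors carrying an N-terminal polyhistidine tag and DsRed fusion were expressed in E. coli BL21-CodonPlus and purified on Ni–NTA. A custom Agilent array, made double-stranded by primer extension with Cy5-dUTP and blocked with 2% BSA, was incubated with 200 nM protein in PBS, 2% BSA, salmon testes DNA and 50 µM zinc acetate at 25 °C for 1 h and then washed.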

Sequence	binding signal
ACCACACGTTATAATACATGTGGTTTTCCACAACTTTAACCGGAGTCACCTAGTGCAG	24700 fluorescence intensity (a.u.)
ATTTATCTACGTCACCGTAGTTTTACTCATGATGACGTAGCGGAGTCACCTAGTGCAG	7780 fluorescence intensity (a.u.)
AACGTGCGAATCAACTGTCAATTAATTCTGACATGAACCTCGGAGTCACCTAGTGCAG	3220 fluorescence intensity (a.u.)
GGCCAGGCCACCCCAACACGCCAGCCTCCCGGGCCGTTGACGGAGTCACCTAGTGCAG	3250 fluorescence intensity (a.u.)
AATTTGAAGCGACACGTCTCCTAGCTAACAAAACGCAGCACGGAGTCACCTAGTGCAG	4290 fluorescence intensity (a.u.)
CTAATACCGACCAACACGTATTGGCCTGGTACTGACTGGTCGGAGTCACCTAGTGCAG	3760 fluorescence intensity (a.u.)
ACTGTGTGGCGTGTCAGTATTGTTTTGTCACGTCAGACGACGGAGTCACCTAGTGCAG	8470 fluorescence intensity (a.u.)
AATTCCTCCCTTATATATAATCCTAGTCAGATTCTTGTATCGGAGTCACCTAGTGCAG	7700 fluorescence intensity (a.u.)
CACCGGTCCTTGTCTTGCTTTGTCAGCGAGCTCGGGAAGCCGGAGTCACCTAGTGCAG	5340 fluorescence intensity (a.u.)
TTTAAACTATGTAGAGACACTTGTTAGAATAATAATATGTCGGAGTCACCTAGTGCAG	20900 fluorescence intensity (a.u.)
TCCCGTCTCGGCTCCTTGCGCCATCGTCGACAGGGGAGGGCGGAGTCACCTAGTGCAG	3540 fluorescence intensity (a.u.)
TGTATTCGGCCTCAGCCACGTACGTGGGCTTTATATTGGGCGGAGTCACCTAGTGCAG	5490 fluorescence intensity (a.u.)
GCTCTCATGGGGCTTCTATCTGTATGGGTGATCTTAATGACGGAGTCACCTAGTGCAG	7940 fluorescence intensity (a.u.)
GGCGGGTGGCTGCTCGCCGGACATGGTGGGTGGGTGCGTGCGGAGTCACCTAGTGCAG	3620 fluorescence intensity (a.u.)
TAATTGGCTTGAGTTTGTTTATATGGCATTGAGTTCATCTCGGAGTCACCTAGTGCAG	24600 fluorescence intensity (a.u.)
GATCAGAGGTCAACATTTGATCTGGGAGAAGTGGTCAGCGCGGAGTCACCTAGTGCAG	3410 fluorescence intensity (a.u.)
ACCGGCGAGCTCCTCCCCGCCCGCGACGTGGCGCGCGGAGCGGAGTCACCTAGTGCAG	5780 fluorescence intensity (a.u.)
CAATCTTGCGTGAGCCGTGAGTCCAGCAGCCACGACACTACGGAGTCACCTAGTGCAG	4150 fluorescence intensity (a.u.)
TCCTACGACCGTCTCGCCACGTCGGAGCCAAGGAAATTCGCGGAGTCACCTAGTGCAG	8640 fluorescence intensity (a.u.)
TCGAACTCGCTCACCATGTTCGCCACGAAGTACTCGACATCGGAGTCACCTAGTGCAG	3220 fluorescence intensity (a.u.)
TTGTTGCGATAAGTAGATCGACACGGCACAGAAACAGGTTCGGAGTCACCTAGTGCAG	4040 fluorescence intensity (a.u.)

Sequence	binding signal
ACTCTGCACGCACAGACAAACGCCACAGAGCGGCTGCAGCCGGAGTCACCTAGTGCAG	3480 fluorescence intensity (a.u.)
TTTTCTACGATATACGTAAGGCTAAATTGGATAATTCATCCGGAGTCACCTAGTGCAG	3240 fluorescence intensity (a.u.)
CGCCAAACATCGTCCGACTCCTCCGAGGCCACGCCAGGGGCGGAGTCACCTAGTGCAG	24000 fluorescence intensity (a.u.)
TTCTACACGACTGCACATAAACTCCCTTTTAGGGACAATTCGGAGTCACCTAGTGCAG	19400 fluorescence intensity (a.u.)
CAAGTTCTTGTCAAAATAGACAGAATTATGGGATTTGAGCCGGAGTCACCTAGTGCAG	4220 fluorescence intensity (a.u.)
ACCACGAACGAAGATCAATCGTCATTAATTATAAGGTGAGCGGAGTCACCTAGTGCAG	24300 fluorescence intensity (a.u.)
TCGCTTTAACGCTTTCCTGAATCAGCACACTCCTACTTGCCGGAGTCACCTAGTGCAG	4300 fluorescence intensity (a.u.)
ATGAAACAAACACTTAATTTTCACCTGACAGGTAATTAACCGGAGTCACCTAGTGCAG	3990 fluorescence intensity (a.u.)
AACGTCTCCACCAAGCTTTGTCGATCACCTCCATGCTTTCCGGAGTCACCTAGTGCAG	3300 fluorescence intensity (a.u.)
ACTGCACGCCGCATGCCACCGACACCGCACGTAGAAGCTTCGGAGTCACCTAGTGCAG	3580 fluorescence intensity (a.u.)
CAGACATGACATAGCATAAATTGCACATGATCGGACACTACGGAGTCACCTAGTGCAG	3290 fluorescence intensity (a.u.)
GTGAGTGGTGGTGGTAGTAGTAACTGTATTTGTGCTAGTACGGAGTCACCTAGTGCAG	3450 fluorescence intensity (a.u.)
GGCGCGCAGTGGGACCCACGTGTCGGTCTCATACTCACCACGGAGTCACCTAGTGCAG	13300 fluorescence intensity (a.u.)
CGCCGCCACTGTCGCCGGCTTGCCGCTGCCGTCGTCACCGCGGAGTCACCTAGTGCAG	5480 fluorescence intensity (a.u.)
CCAATGAACATGCATGCCACTCAATGCATGCAGTGCAGTACGGAGTCACCTAGTGCAG	3230 fluorescence intensity (a.u.)
CGTCGCGCTCCCGCCGCTCCGCGTCCGCGTCCGCGTCGGCCGGAGTCACCTAGTGCAG	7570 fluorescence intensity (a.u.)
GAGACCCGAGTCAAGAGATATCGCCGTTTTACTAACGGTACGGAGTCACCTAGTGCAG	3390 fluorescence intensity (a.u.)
TTGAGTCAGTAGTGTTGACAACGGTCAAGGTGCCACGTCACGGAGTCACCTAGTGCAG	26100 fluorescence intensity (a.u.)
GGGTTGACTGCGCGCGCATGTCGACGTTCGGCCGCCGATCCGGAGTCACCTAGTGCAG	15700 fluorescence intensity (a.u.)
GGTTGGATGGTTGGATTTGATGTGGATTTGAATTGTTATGCGGAGTCACCTAGTGCAG	4290 fluorescence intensity (a.u.)
GTGGAGCCCCAACCCAACTACGCCGCCGCCACCTCATCCCCGGAGTCACCTAGTGCAG	6820 fluorescence intensity (a.u.)

As a short view, some entries already given:
Sequence	binding signal
TTGTTGCGATAAGTAGATCGACACGGCACAGAAACAGGTTCGGAGTCACCTAGTGCAG	4040 fluorescence intensity (a.u.)
ACTCTGCACGCACAGACAAACGCCACAGAGCGGCTGCAGCCGGAGTCACCTAGTGCAG	3480 fluorescence intensity (a.u.)
TTTTCTACGATATACGTAAGGCTAAATTGGATAATTCATCCGGAGTCACCTAGTGCAG	3240 fluorescence intensity (a.u.)
CGCCAAACATCGTCCGACTCCTCCGAGGCCACGCCAGGGGCGGAGTCACCTAGTGCAG	24000 fluorescence intensity (a.u.)

The listing continues:

Sequence	binding signal
ATTCAGTGCAGCAGCTGCAGGCCAAGCAGGCAGCACAGCACGGAGTCACCTAGTGCAG	3610 fluorescence intensity (a.u.)
ACGCTCGGCTGGGTGCCGGCTGGGAGTGACGCAGACGCGGCGGAGTCACCTAGTGCAG	3420 fluorescence intensity (a.u.)
TTAACTCTTTGTTCGATTTGAGCTTAGTCACTTGATTGCACGGAGTCACCTAGTGCAG	4990 fluorescence intensity (a.u.)
TGACTCGAACCCATCCACGGCAACGAAACCGAGCCCAACCCGGAGTCACCTAGTGCAG	3210 fluorescence intensity (a.u.)
GTGTGCCGCCGCCGCTGACTCCGGAGGGAGAGGACGAGCTCGGAGTCACCTAGTGCAG	3320 fluorescence intensity (a.u.)
TGATCAAATTTAGTCGTACATGAGTCGGACAATTGAGCTGCGGAGTCACCTAGTGCAG	3860 fluorescence intensity (a.u.)
CCATTGTAGACCATGCAAATGTTAATGGAGCCAATTGGTTCGGAGTCACCTAGTGCAG	3180 fluorescence intensity (a.u.)
GAGAGGAGGAGGAGGAGCACAGGGCACATGCGGATGCGGCCGGAGTCACCTAGTGCAG	3700 fluorescence intensity (a.u.)
AAACAAAGTGGCACAGATAAAATGGAACATAGAAGTGGCACGGAGTCACCTAGTGCAG	40700 fluorescence intensity (a.u.)
TCGTAAGTAGGGATGCACATGGGTCGGGTTAACCCAGCTACGGAGTCACCTAGTGCAG	4110 fluorescence intensity (a.u.)
GACGACGACCGTGACTATGGAGGCAGTGGTGACGTCGGCGCGGAGTCACCTAGTGCAG	12800 fluorescence intensity (a.u.)
CAGAAGCGTCTACATACAATAGGATTGGGGCCTGCAAATCCGGAGTCACCTAGTGCAG	55500 fluorescence intensity (a.u.)
GTTCGAAAGCATCACCGAAGCTAGCTTACTCCTGCCGCCACGGAGTCACCTAGTGCAG	21800 fluorescence intensity (a.u.)
AAATAAATAGTACTATCACGAATTCACGATGCATCACCGACGGAGTCACCTAGTGCAG	3370 fluorescence intensity (a.u.)
CGGGCGGGGCGGGGCGGGTTCGCTCGTCGGATGTGTGGATCGGAGTCACCTAGTGCAG	6500 fluorescence intensity (a.u.)
ATATATATATATATATATATATATATATATGTGTGTGTGTCGGAGTCACCTAGTGCAG	3350 fluorescence intensity (a.u.)
TGACTGCCAGCAAGTGTCACGAGTCATTGGCAATGATCTTCGGAGTCACCTAGTGCAG	3640 fluorescence intensity (a.u.)
AGGGGTGCGTGTGACATATCATCAATCAATAACCAGCCTACGGAGTCACCTAGTGCAG	3450 fluorescence intensity (a.u.)
TCCTCCCGCCTCTTCGACTTGCCACGGCGGTCCCGGTCCCCGGAGTCACCTAGTGCAG	4900 fluorescence intensity (a.u.)
CAACCCAAGCCAAGCCACCTCAGCCTCGCAGCGGCGCCCCCGGAGTCACCTAGTGCAG	8640 fluorescence intensity (a.u.)
GACGACGACAACGCCACGACCTCCTCCTCCTCCTCCTCCTCGGAGTCACCTAGTGCAG	3930 fluorescence intensity (a.u.)

Sequence	binding signal
AAAATCATTTCCCAAACCCATTAGCCAAACACTGCCTAGGCGGAGTCACCTAGTGCAG	21000 fluorescence intensity (a.u.)
CCTCGTCTGACAGGTAGTCCCATCACGTGGGCCCCACCTCCGGAGTCACCTAGTGCAG	4370 fluorescence intensity (a.u.)
CGATCTGGGAGCACACGCCGCGCCTCGTGTCGCTGAATGCCGGAGTCACCTAGTGCAG	3330 fluorescence intensity (a.u.)
GCCACCACCTGCCTCACTGCCACGTGGAGCCCGCACCACCCGGAGTCACCTAGTGCAG	18000 fluorescence intensity (a.u.)
ATGTTTTGAGCACCAATCACACACCAATAACGCCAACGTACGGAGTCACCTAGTGCAG	34000 fluorescence intensity (a.u.)
ATAGTTAAATATTTGGAGTATCATTTTAGCAAACACACGACGGAGTCACCTAGTGCAG	3970 fluorescence intensity (a.u.)
TCCTCCCAAAGATAATTCAGCTGATGATATTTCCATATCTCGGAGTCACCTAGTGCAG	3210 fluorescence intensity (a.u.)
CATAACATACTTGATGCGAGTTACTGCTTAGTCACAAAACCGGAGTCACCTAGTGCAG	4210 fluorescence intensity (a.u.)
ACAGGTGGAAGCGGCAGCCGGTCCGAAGGTCTCGGGACCACGGAGTCACCTAGTGCAG	3310 fluorescence intensity (a.u.)
GTGTGAAACTCATACAAATATAAAATTACTGAACTACCGTCGGAGTCACCTAGTGCAG	49600 fluorescence intensity (a.u.)
GAACATCGCGCCGTCCACGTGGACAGCCTCGGACAAGGTGCGGAGTCACCTAGTGCAG	9050 fluorescence intensity (a.u.)
ATGCACATACCTAAGAATACCTGTTTGTGACATCATGCGACGGAGTCACCTAGTGCAG	4790 fluorescence intensity (a.u.)
ATTAAATGGAATTACTGATAGATGAGGTGTGCTGATAGAACGGAGTCACCTAGTGCAG	5840 fluorescence intensity (a.u.)
AATCTATGTGACGTAGCATCCTACGAGAGAGGCGTGGCGTCGGAGTCACCTAGTGCAG	9260 fluorescence intensity (a.u.)
TCATTGCCATCACATTGTAGATCTTCAATTGCGTACTTGTCGGAGTCACCTAGTGCAG	3690 fluorescence intensity (a.u.)
ATCAAAATAGATTAAAGTTTAGTTTTAACGAAACTAGTTTCGGAGTCACCTAGTGCAG	3180 fluorescence intensity (a.u.)
ACATAAGAAGAAGAAGAAATGAATGTGAGTTGGCATTTACCGGAGTCACCTAGTGCAG	4420 fluorescence intensity (a.u.)
ATGATGATGATCCTGATCCTGATCTTCCTCCTCGATCGACCGGAGTCACCTAGTGCAG	42700 fluorescence intensity (a.u.)
ATGTGAGTTCAAATTCGTATTTCTAGAATGTGTCATATTTCGGAGTCACCTAGTGCAG	4360 fluorescence intensity (a.u.)
TTGCTTGCCGTTGCTGGCTGTGTCAGTGTGCCACCCACTCCGGAGTCACCTAGTGCAG	4050 fluorescence intensity (a.u.)
TCCTCGTCGTTGTGTTGTCGCGCACGGCGCAGGATGTGCTCGGAGTCACCTAGTGCAG	4230 fluorescence intensity (a.u.)

An excerpt of these results, with each value named:
GAACATCGCGCCGTCCACGTGGACAGCCTCGGACAAGGTGCGGAGTCACCTAGTGCAG
  binding signal = 9050 fluorescence intensity (a.u.)
ATGATGATGATCCTGATCCTGATCTTCCTCCTCGATCGACCGGAGTCACCTAGTGCAG
  binding signal = 42700 fluorescence intensity (a.u.)

Reference: paper PMC7819943, “Rice protein-binding microarrays: a tool to detect cis-acting elements near promoter regions in rice”
